In patent publication US20070225246A1, “O-acetyl-ADP-ribose non-hydrolyzable analogs” (priority 2006, published 2007):
Some results were stated once for a whole list of compounds, not compound by compound.

Assay: HPLC stability studies at physiological temperature and pH
Type: physicochemical
Settings: over 3 days
Method: To validate the installation of an N-acetyl as a non-hydrolyzable substitution, the stabilities of both 2′- and 3′-NAADPr were evaluated at physiological temperature and pH using conditions previously described (Borra et al., 2002, J. Biol. Chem. 277: 12632-12641). […] HPLC analysis of both 2′- and 3′-NAADPr using exact conditions indicated negligable decomposition (<1%) over 3 days and confirmed the stability of the acetyl funcitonality to spontaneous hydrolysis at physiological pH.
Reactions were carried out with both analogs (final concentration of 500 μM) in 50 mM Tris (pH 7.5 at 37° C.) containing 1 mM DTT. Samples were incubated at 37° C. over 3 days and four time points were collected (0, 24, 48, and 72 h). Each sample was quenched with H2O containing 0.05% TFA and analyzed by HPLC (analytical C18) using the method described in general procedures. Each trace was integrated (Shimadzu EZStart version 7.2.1 SP1) to determine peak area and analog percentage is shown in the following table 1. Both 2′- and 3′-NAADPr contained trace impurities at 12.9 and 12.5 min respectively and contributed to the observed degradation products visible at 23.3 min in each study.

3′-N-Acetyl-ADP-ribose [3′-NAADPr]
decomposition: < 1%
